Measured data: PubChem BioAssay AID1259262 (Sanger Institute, 2017)
Aim: 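Kinase knock-downs that strengthen killing by targeted cancer drugs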 (follow-up of hits). Cell system: LS513 human colorectal cancer cells. Knock-down reagent: single siRNA against human genes. Treatment: anchor drug or DMSO vehicle: cetuximab 5 µg/ml, trametinib 10 nM or BYL719 1 µM; exposure length not given. Measured: 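Cell viability relative to non-targeting control siRNA, and a synergy score for each anchor drug, averaged over replicates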. Direction: synergy score with trametinib and synergy score with BYL719 and synergy score with cetuximab: higher = stronger synergistic loss of viability with drug; viability, siRNA with trametinib and viability, siRNA with vehicle only: higher = more viable cells. Call rule: 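Active when the synergy score is above 0.10 for trametinib, BYL719 or cetuximab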. Calls: active = synergy with at least one drug; inactive = no synergy with any drug.
In all, the deposit lists 160 reagents; below is a part drawn at random. In the full data, 93 (58%) are marked active. 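Calls refer to single siRNAs; gene-level validation required two or more siRNAs in several lines; synergy score formula unstated.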 The numbers tell different reagents against one gene apart. No viability above 1 is reported: the scale is capped. The record does not give: the amount of reagent, the time to read-out.

no.	Target gene	reagent no.	synergy score with trametinib	synergy score with BYL719	synergy score with cetuximab	viability, siRNA with trametinib (fraction of control)	viability, siRNA with vehicle only (fraction of control)	activity call
1	MAP3K8	1	0.0723	-0.182	-0.0678	0.433	0.929	inactive
2	MAP3K8	2	0.0859	-0.103	0.000471	0.12	0.378	inactive
3	MAP3K8	3	0.00811	-0.155	-0.15	0.412	0.773	inactive
4	MAP3K8	4	0.215	-0.00721	0.0901	0.234	0.827	active
5	STK36	1	0.199	-0.214	-0.0897	0.0553	0.468	active
6	STK36	2	-0.111	-0.223	-0.11	0.655	1	inactive
7	STK36	3	0.139	-0.149	-0.116	0.272	0.756	active
8	STK36	4	0.116	-0.184	-0.074	0.382	0.916	active
9	SF3B1	1	-0.0616	-0.126	-0.0542	0.195	0.245	inactive
10	SF3B1	2	0.0193	-0.0336	-0.0176	0.0809	0.184	inactive
11	SF3B1	3	0.0286	-0.00652	0.0419	0.297	0.599	inactive
12	SF3B1	4	0.00731	-0.0607	0.0107	0.0774	0.156	inactive
13	PLK1	1	0.0239	-0.0787	-0.0922	0.113	0.252	inactive
14	PLK1	2	0.0907	0.00697	0.0247	0.129	0.404	inactive
15	PLK1	3	0.075	0.0558	0.0607	0.144	0.402	inactive
16	PLK1	4	0.0426	-0.00537	-0.00284	0.0631	0.194	inactive
17	SYNCRIP	1	0.183	-0.0967	0.0628	0.0481	0.426	active
18	SYNCRIP	2	0.0606	-0.00701	-0.0222	0.477	0.988	inactive
19	SYNCRIP	3	0.109	-0.109	-0.107	0.161	0.496	active
20	SYNCRIP	4	0.126	-0.0883	-0.0358	0.376	0.923	active
21	PAK1	1	0.249	-0.0869	-0.0765	0.194	0.816	active
22	PAK1	2	0.133	-0.0401	0.0122	0.135	0.493	active
23	PAK1	3	0.255	-0.00191	-0.159	0.123	0.696	active
24	PAK1	4	0.263	-0.16	-0.0455	0.234	0.912	active
25	GUCY2D	1	0.14	-0.0831	0.0189	0.404	1	active
26	GUCY2D	2	0.341	-0.011	0.0382	0.203	1	active
27	GUCY2D	3	0.189	-0.0643	-0.0125	0.198	0.711	active
28	GUCY2D	4	0.0913	-0.112	-0.0537	0.452	1	inactive
29	IRAK1	1	0.123	0.083	-0.131	0.385	0.935	active
30	IRAK1	2	0.0417	0.0119	0.00495	0.48	0.959	inactive
31	IRAK1	3	0.125	-0.0252	0.0491	0.332	0.841	active
32	IRAK1	4	-0.0372	0.464	-0.152	0.547	0.938	
33	COASY	1	0.134	-0.0746	-0.062	0.386	0.957	active
34	COASY	2	0.0122	-0.0451	-0.148	0.301	0.576	inactive
35	COASY	3	0.167	-0.151	-0.000546	0.0859	0.465	active
36	COASY	4	0.216	0.0151	-0.0234	0.109	0.599	active

Sorted by “synergy score with BYL719” (low to high): 5 of the entries above.
Target gene	reagent no.	synergy score with trametinib	synergy score with BYL719	synergy score with cetuximab	viability, siRNA with trametinib (fraction of control)	viability, siRNA with vehicle only (fraction of control)	activity call
STK36	1	0.199	-0.214	-0.0897	0.0553	0.468	active
MAP3K8	1	0.0723	-0.182	-0.0678	0.433	0.929	inactive
MAP3K8	3	0.00811	-0.155	-0.15	0.412	0.773	inactive
MAP3K8	2	0.0859	-0.103	0.000471	0.12	0.378	inactive
MAP3K8	4	0.215	-0.00721	0.0901	0.234	0.827	active
